# Laboratory results: the supplement of paper PMC11150407
# About 45 (2%) of roughly 3,000 compounds showed an effect of 50% or more. This is one part of the list.
# Test system: MOLM1 and UCSD/AML1 (averaged)
# Experiment: cell viability relative to DMSO control (POC); higher = less growth inhibition
# Conditions: 1 µM; 72 h
# Protocol: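 Primary viability screen in the 3q26 EVI1-high AML cell lines MOLM1 and UCSD/AML1, compounds at 1 uM for 72 h. ATP CellTiter-Glo read-out given as percent viable over DMSO control (POC), averaged over duplicates. This mapping covers the TimTec NDL-3000 natural derivative library, whose compounds are identified by TimTec catalogue codes (ST...).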
row,SMILES,cell viability [%]
1,COc1cc(C(=O)CC2(O)C(=O)N(Cc3c(Cl)cccc3Cl)c3ccccc32)cc(OC)c1OC (stereo not drawn),99.8
2,COc1ccc(C(=O)Nc2sc(Nc3ccc(C)cc3)nc2C(N)=O)cc1OC,101
3,CCN(CC)C(=O)c1cc(=O)n(CC(=O)Nc2ccc3c(c2)OCCO3)c2ccccc12,100
4,COc1ccc(C(=O)/C=C/c2ccc(OC)c(COc3cccc(C)c3C)c2)cc1,104
5,COc1cc(C(=O)Nc2cccc(C#N)c2)cc(OC)c1OC,102
6,Cc1cc2c(c(O)c1-c1c(C)cc3c(c1O)/C(=C/Nc1ccc(S(=O)(=O)Nc4nccs4)cc1)C(=O)C(O)=C3C(C)C)/C(=C/Nc1ccc(S(=O)(=O)Nc3nccs3)cc1)C(=O)C(O)=C2C(C)C,97.8
7,Cc1[nH]c2c(C)cccc2c(=O)c1CN1CCCCC1C (stereo not drawn),94.6
8,CCCCc1ccc(NCCC(=O)c2cc3ccccc3oc2=O)cc1,102
9,O=C(O)C1Cc2ccccc2CN1 (stereo not drawn),104
10,CCn1cc(/C=C\C(=O)c2ccc3c(c2)OCO3)cn1,83.6
11,O=C(CN1CCc2ccccc2C1)Nc1cc(C(F)(F)F)ccc1Cl,105
12,Cc1nn(-c2ccccc2)c(C)c1CN1CCN(C(=O)c2ccc3c(c2)OCO3)CC1,98.5
13,COc1ccc(CC(C)(C)O)cc1OC,96.5
14,Cc1ccc(C(=O)/C=C/c2ccc(Cl)cc2Cl)cc1,113
15,CCOCCOC(=O)C1=C(C)NC2=C(C(=O)CC(C)(C)C2)C1c1cc(Cl)c(O)c(OC)c1 (stereo not drawn),104
16,COc1cc(C2C3CCCCC3(O)CCN2CC(=O)Nc2ccc(C)cc2)ccc1O (stereo not drawn),87.9
17,CC(C)(C)OC(=O)N[C@@H](Cc1ccc(O)cc1)C(=O)O,107
18,NC(=O)C(Cc1ccccc1)NC(=O)c1ccc2c(c1)OCO2 (stereo not drawn),92.1
19,COc1cc(OC)cc(C(=O)Nc2ccccc2C(=O)N2CCCC2)c1,100
20,Cc1c(-c2ccc(O)cc2)c(=O)oc2c(Br)cc(Cl)cc12,89.8
21,COc1cc(/C=C2/C(=O)N(c3nn[nH]n3)N=C2C)ccc1O,102
22,COc1ccc(S(=O)(=O)NCCc2c(C)[nH]c3ccccc23)cc1,99.9
23,CCN(CC)CCCNc1nc(-c2ccc(Cl)cc2)nc2ccccc12,64.2
24,CC12CCC(=O)N1C(C(=O)O)CS2 (stereo not drawn),101
25,COc1ccc(/C(O)=C2/C(=O)C(=O)NC2c2ccc(O)c(OC)c2)cc1 (stereo not drawn),97.9
26,Cc1c(C(=O)O)[nH]c(=O)[nH]c1=O,98.4

row,SMILES,cell viability [%]
1,Cc1ccc(NC(=O)CSc2nc3c(=O)[nH]cnc3n2C)cc1,104
2,O=C(CNC(=O)c1ccccc1)N[C@@H](Cc1ccccc1)C(=O)O,100
3,CCOC(=O)c1sc(NC(=O)c2cc(OC)cc(OC)c2)c(C#N)c1C,98.5
4,CCCCCC[n+]1ccccc1/C=C/c1ccc2c(c1)OCO2,52.6
5,C=C(C)C1CCC2(COC(=O)CCC(=O)O)CCC3(C)C(CCC4C5(C)CCC(OC(=O)CCC(=O)O)C(C)(C)C5CCC43C)C12 (stereo not drawn),97.5
6,CCCNC(=O)c1nn(CC)cc1NC(=O)c1ccc2c(c1)OCCO2,93
7,COC(=O)C1=C(N)Oc2c(oc(CO)cc2=O)C1c1cccc(Cl)c1Cl (stereo not drawn),105
8,CC1(C)OC2OC(CO)C3OC(C)(C)OC3C2O1 (stereo not drawn),101
9,CC(/C=C\c1ccc2c(c1)OCO2)=N/NC(=O)c1cncc(Br)c1,107
10,Cc1oc2ccc(O)cc2c1C(=O)O,105
11,COc1ccc(C(=O)CCN(C)C)cc1OC,59.8
12,COc1ccc(C(=O)Nc2cccc(C(=O)OCC(=O)c3ccc(C)cc3)c2)cc1OC,105
13,COc1ccc(/C=C/C(=O)Nc2ccc(OC)c(OC)c2)cc1OC,91.3
14,CCOc1ccc(-c2cc(-c3cc(OC)c(OC)c(OC)c3)[nH]c(=O)c2C#N)cc1,99.9
15,Cc1[nH]c2ccc(F)cc2c1CCNC(=O)c1cc([N+](=O)[O-])cc([N+](=O)[O-])c1,102
16,N#CC1=C(N)Oc2cc(O)ccc2C1c1cccc(C(F)(F)F)c1 (stereo not drawn),22.1
17,COc1cccc(CSc2nc3c(=O)[nH]cnc3n2-c2ccc(C)cc2)c1,93.4
18,COc1ccc(NC(=O)CSc2nc3c(=O)[nH]cnc3n2C)cc1Cl,104
19,COC(=O)c1ccc2c(c1)C(=O)/C(=C\c1cc(OC)c(OC)c(OC)c1)O2,96.4
20,CC(C)(C)c1ccc(-c2nc(Nc3ccc(C(=O)O)cc3)c3ccccc3n2)cc1,91.5
21,CCOc1cc(C2C(C(=O)OCCOC)=C(C)NC3=C2C(=O)CC(c2ccccc2)C3)cc(Br)c1O (stereo not drawn),92.4
22,Cc1cc(C)c(C(=O)O)c(N)n1,97.4
23,O=C(c1cccc(S(=O)(=O)N2CCCCCC2)c1)N1c2ccccc2Sc2ccccc21,82.2
24,COc1ccc2c(c1OC)C(=O)OC2C(C(C)=O)C(C)=O (stereo not drawn),104
25,COc1ccc(C(=O)CSc2cccc3cccnc23)cc1OC,104
26,COc1ccc(C2C3CCCCC3(O)CCN2C(=O)c2cccc(F)c2)c(OC)c1 (stereo not drawn),91.1

row,SMILES,cell viability [%]
1,O=c1c(Br)coc2ccc(F)cc12,85.1
2,Cc1ccc(NC(=O)CCC(=O)O)cc1,105
3,CC(N)C(=O)NC(C)C(=O)O (stereo not drawn),100
4,O=c1c(-c2ccccc2)coc2c(CN3CCCCC3)c(O)ccc12,96
5,CCOC(=O)N/N=C1/C=C2CCC3C(CC[C@@]4(C)C3CC3CCCC[C@]34C(C)=O)[C@@]2(C)CC1 (stereo partly drawn),92.4
6,COc1cc(C(=O)N2CCN(C(=O)c3cccc(Cl)c3)CC2)cc(OC)c1OC,102
7,Cn1c(=O)c2c(nc(NCC(O)c3ccccc3)n2C)n(C)c1=O (stereo not drawn),97.2
8,CC1(C)OC(c2cccc(NC(=O)c3ccc4c(c3)OCO4)c2)OC1(C)C,91.8
9,Cc1ccc(-n2c(SCc3cccc(C)c3)nc3c(=O)[nH]cnc32)cc1,120
10,COc1ccccc1N1CCN(C(=O)CSc2nc3ccccc3c(=O)[nH]2)CC1,100
11,COc1ccccc1/C=C/C(=O)c1ccc(O)cc1O,92.6
12,CC1NC(C(=O)O)Cc2c1[nH]c1ccccc21 (stereo not drawn),112
13,CCCc1cc(=O)oc2cc(OC(C(=O)OC)c3ccccc3)ccc12 (stereo not drawn),106
14,Cc1ccc(-n2c(SCc3nc(-c4ccccc4C)oc3C)nc3c(=O)[nH]cnc32)cc1,110
15,CCOc1ccc(-c2c(C)c3cc(F)ccc3oc2=O)cc1,56.1
16,COc1cc(C2NC(C(=O)O)CS2)cc(OC)c1O (stereo not drawn),98.1
17,Cc1ccc(/C=C/C(=O)c2ccc3c(c2)OCO3)s1,94.4
18,CC(C)OC(=O)C1=C(N)Oc2c(oc(CO)cc2=O)C1c1ccc(F)cc1 (stereo not drawn),92.6
19,COc1ccc(C(=O)N2CCCc3cccc(OC)c32)cc1OC,90.1
20,CCCCCCCCCCCCCCCC(=O)OC(CC(=O)O)C[N+](C)(C)C (stereo not drawn),107
21,COc1cc(C2=NOC(=O)/C2=C\c2sccc2C)cc(OC)c1OC,98.7
22,COc1cc(NC(=O)Cn2c(=O)cc(C(=O)N3CCCCC3)c3ccccc32)cc(OC)c1,97.1
23,CCOc1ccccc1C(=O)NCCc1c(C)[nH]c2ccccc12,105
24,COc1cc(C2Nc3ccc4ccccc4c3C3=C2C(=O)CC(C)(C)C3)ccc1OCc1ccccc1 (stereo not drawn),105
25,O=C(O)c1ccc2[nH]c3c(c2c1)CCCC3,95.7
26,COC(=O)C1(C)CCC2(C)CCC3(C)C(=CC(=O)C4C5(C)CCC(O)C(C)(C)C5CCC43C)C2C1 (stereo not drawn),90

row,SMILES,cell viability [%]
1,COc1cc(CCC(=O)Nc2c(C)c(C)c3c(c2C)NC(=O)CO3)cc(OC)c1OC,94.8
2,COc1ccc(C(=O)NCC(=O)NN)cc1OC,104
3,COC(=O)C1=C(N)Oc2c(oc(CO)cc2=O)C1c1ccc(Cl)cc1Cl (stereo not drawn),101
4,Cc1sc(N)nc1-c1c[nH]c2ccccc12,99.1
5,CC(C)(C)c1ccc(C(=O)/C=C/c2ccc(Cl)cc2Cl)cc1,100
6,O=C(O)CNC(=O)c1ccc(NS(=O)(=O)c2ccc3c(c2)OCCO3)cc1,94.1
7,Cc1cc(C)c(NC(=O)Cn2c(=O)cc(C(=O)N3CCc4ccccc4C3)c3ccccc32)c(C)c1,100
8,Cc1ccc2nc(-c3ccc(C)c(NC(=O)c4ccc5c(c4)OCCO5)c3)oc2c1,106
9,COc1ccc(C2C3CCCCC3(O)CCN2C(=O)/C=C/c2ccc(C(C)C)cc2)c(OC)c1 (stereo not drawn),99.4
10,O=C1C[C@H](n2nc(-c3ccccc3Br)oc2=S)[C@H]2CO[C@@H]1O2,55.5
11,COc1ccc(C(=O)C2[C@H]3C4COC(O4)C(=O)[C@H]3[C@@H]3c4ccccc4C=CN23)cc1OC (stereo partly drawn),102
12,Cc1cc(C(=O)NCCc2c(C)[nH]c3ccccc23)ccc1[N+](=O)[O-],94.1
13,CC(=O)CSc1nc2c(c(=O)[nH]c(=O)n2C)n1Cc1cccc(C)c1,106
14,Cc1cc(Oc2ccc(C)c(Cl)c2)nc(SCC(=O)c2ccccc2)n1,88.2
15,CC(=NCCc1c(C)[nH]c2ccccc12)c1c(C)[nH]n(-c2nc3ccccc3s2)c1=O,96.3
16,COC(=O)c1c(C)n(CCOc2ccc(F)cc2)c2ccc(O)cc12,96.9
17,COc1ccc(C(=O)Nc2sc3c(c2C(N)=O)CCCC3)cc1OC,95.1
18,Cc1cc2c(c(O)c1-c1c(C)cc3c(c1O)/C(=C/Nc1cccc4c(N)cccc14)C(=O)C(O)=C3C(C)C)/C(=C/Nc1cccc3c(N)cccc13)C(=O)C(O)=C2C(C)C,70.8
19,COc1cc(C(=O)Nc2ccccc2OC(C)C)cc(OC)c1OC,83.4
20,Nc1c(C(=O)N2CCC[C@H]2C(=O)O)sc2nc(-c3ccccc3)cc(-c3ccccc3)c12,95.6
21,N#CC1=C(N)OC2=C(COc3ccccc32)C1c1cccc(Cl)c1 (stereo not drawn),106
22,CC(C)CC(Nc1c(C(=O)Nc2ccc(Cl)cc2)cc([N+](=O)[O-])cc1[N+](=O)[O-])C(=O)O (stereo not drawn),95.8
23,O=C1C[C@H](n2nnn(-c3cccc(O)c3)c2=S)[C@H]2CO[C@@H]1O2,88.1
24,CCCCOc1ccc(C(=O)/C=C/c2ccc(Cl)cc2Cl)cc1OCCCC,101
25,COc1ccc(C2c3[nH]c4ccccc4c3CCN2C(=O)/C=C/c2ccc(OC)c(OC)c2)cc1 (stereo not drawn),81.9

# Arranged by count of non-hydrogen atoms (smallest number first): four of the compounds above
row,SMILES,cell viability [%]
24,COc1ccc2c(c1OC)C(=O)OC2C(C(C)=O)C(C)=O (stereo not drawn),104
17,COc1ccc(C(=O)Nc2sc3c(c2C(N)=O)CCCC3)cc1OC,95.1
8,CCCCc1ccc(NCCC(=O)c2cc3ccccc3oc2=O)cc1,102
26,COc1ccc(C2C3CCCCC3(O)CCN2C(=O)c2cccc(F)c2)c(OC)c1 (stereo not drawn),91.1
